Experimental data: PubChem BioAssay AID1671195 (Yale University, 2021)
This is an unselected part of about 22,000 deposited reagents. About 1,510 of them (6.9%) were called active. 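Active includes knockdowns raising or lowering LDL uptake; positive z-scores mean more uptake, negative mean less.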 Reagents against one gene are numbered here.

- Test: 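Regulators of LDL receptor activity judged by labelled LDL uptake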 (primary screen)
- Cells: human Huh7 hepatoma cells
- Reagents: siRNA pool against human genes, 18 nM
- Timing: about 2 to 2.5 days of knockdown, then 8 h LDL uptake
- Challenge: DiI-labelled LDL at 30 µg/ml for 8 h, in lipoprotein-deficient serum medium
- Measurement: 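Fluorescent LDL signal imaged in cells, scaled to the plate median, robust z-score for each replicate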
- Direction: robust z-score: higher = more LDL uptake after knockdown
- Active means: 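a gene counts as active if at least two replicate z-scores exceed ±2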

gene knocked down	pool no.	robust z-score, replicate 1	robust z-score, replicate 2	robust z-score, replicate 3	outcome
PPP1R35 (GeneID 221908)	1	0.194	0.0427	0.00688	inactive
CCDC22 (GeneID 28952)	1	-0.45	-2.07	-0.157	inactive
LOC389228 (retired record) (GeneID 389228)	1	-0.265	-0.0774	0.0372	inactive
SAA2 (GeneID 6289)	1	1.12	-0.0735	-0.125	inactive
HTR2B (GeneID 3357)	1	0.522	0.883	0.721	inactive
BRD8 (GeneID 10902)	1	-1.12	-1.15	-1.15	inactive
RPL31P43 (GeneID 392382)	1	0.438	1.24	1.47	inactive
CYGB (GeneID 114757)	1	4.99	2.15	-1.4	active
SCML2 (GeneID 10389)	1	-1.45	-1.44	0.21	inactive
PAQR9 (GeneID 344838)	1	-0.547	-0.593	-0.736	inactive
DDR2 (GeneID 4921)	1	-0.531	0.911	0.474	inactive
HABP4 (GeneID 22927)	1	0.581	1.42	1.04	inactive
UCN (GeneID 7349)	1	0.246	-0.433	-0.517	inactive
IFI27 (GeneID 3429)	1	1.29	2.78	1.23	inactive
EVI2B (GeneID 2124)	1	-0.981	-1.35	-0.804	inactive
FTH1P14 (GeneID 139431)	1	1.55	1.8	0.802	inactive
SECISBP2 (GeneID 79048)	1	1.06	0.992	1.57	inactive
AFF3 (GeneID 3899)	1	-0.2	0.00893	-0.0419	inactive
PIEZO2 (GeneID 63895)	1	1.49	1.85	1.74	inactive
PIEZO2 (GeneID 63895)	2	-0.543	-1.07	-1.03	inactive
C1QL3 (GeneID 389941)	1	-0.251	-0.117	-0.372	inactive
CDC42SE1 (GeneID 56882)	1	1.02	1.54	0.874	inactive
NCAPH (GeneID 23397)	1	1.57	-0.929	1.82	inactive
STX16 (GeneID 8675)	1	1.96	1.77	1.39	inactive
JUP (GeneID 3728)	1	-1.11	-0.863	-0.732	inactive
SF3B6 (GeneID 51639)	1	-1.24	0.775	-0.118	inactive
SESN3 (GeneID 143686)	1	0.392	-0.385	0.449	inactive
VRK3 (GeneID 51231)	1	-0.364	-0.408	0.616	inactive
ZBTB7A (GeneID 51341)	1	0.59	0.174	0.582	inactive
PRNP (GeneID 5621)	1	-1.31	1.1	-1.45	inactive
ARSI (GeneID 340075)	1	-1.77	-1.98	-1.58	inactive
LOC441088 (retired record) (GeneID 441088)	1	0.417	0.0508	0.146	inactive
TSHB (GeneID 7252)	1	-0.127	-2.15	1.12	inactive
LOC442198 (retired record) (GeneID 442198)	1	0.0568	0.885	0.584	inactive
USP37 (GeneID 57695)	1	-0.0133	-0.0321	0.544	inactive
NAP1L1 (GeneID 4673)	1	-0.171	0.249	-0.269	inactive
DPH3 (GeneID 285381)	1	-0.223	-0.425	-0.563	inactive
OR52R1 (GeneID 119695)	1	-0.017	-0.000754	-0.244	inactive
CHST7 (GeneID 56548)	1	0.0895	0.33	-0.233	inactive
MRGPRD (GeneID 116512)	1	-0.738	-0.23	-0.473	inactive
WNT3A (GeneID 89780)	1	-1.06	-0.709	-1.1	inactive
TMEM94 (GeneID 9772)	1	0.791	0.337	2.23	inactive
COG5 (GeneID 10466)	1	-0.0196	0.336	0.119	inactive
CA6 (GeneID 765)	1	1.13	1.77	1.4	inactive
STK32B (GeneID 55351)	1	0.746	-0.421	1.07	inactive
TOX3 (GeneID 27324)	1	-0.472	-1.33	-0.794	inactive
MAGEA9 (GeneID 4108)	1	-0.823	-0.232	-0.838	inactive
HIGD1B (GeneID 51751)	1	3.55	3.15	-0.142	active
PDIA3 (GeneID 2923)	1	0.934	-0.15	0.406	inactive
CD248 (GeneID 57124)	1	0.262	1.24	1.09	inactive
NPRL3 (GeneID 8131)	1	-1.59	-0.702	0.337	inactive
FILIP1L (GeneID 11259)	1	0.866	-0.332	1.2	inactive
PCBD2 (GeneID 84105)	1	1.27	1.09	1.09	inactive
PHF8 (GeneID 23133)	1	-0.722	-0.804	0.129	inactive
CHMP2A (GeneID 27243)	1	0.102	1.68	-0.337	inactive
LEMD2 (GeneID 221496)	1	-0.442	-0.386	-0.0998	inactive
COMMD4P1 (GeneID 440292)	1	-0.62	-0.593	-0.516	inactive
HCCS (GeneID 3052)	1	-0.569	0.949	-0.319	inactive
KLHL24 (GeneID 54800)	1	-1.04	-1.2	0.821	inactive
SLC67A1-AS (GeneID 5003)	1	-0.9	-0.209	-1.23	inactive
OR2T4 (GeneID 127074)	1	0.975	0.693	-0.266	inactive
LOC390367 (retired record) (GeneID 390367)	1	-0.0418	-0.581	-0.472	inactive
SERP1 (GeneID 27230)	1	-0.719	0.351	-1.7	inactive
BAP1 (GeneID 8314)	1	-1.19	-0.698	-0.811	inactive
PPP1R27 (GeneID 116729)	1	-2.52	-0.891	-0.977	inactive
SLC6A18 (GeneID 348932)	1	-0.499	0.0498	-0.45	inactive
AKT2 (GeneID 208)	1	-0.406	-0.584	-0.788	inactive
RPL18A (GeneID 6142)	1	-1.32	-1.59	-1.03	inactive

5 entries from above, reformatted:
gene knocked down | pool no. | robust z-score, replicate 1 | robust z-score, replicate 2 | robust z-score, replicate 3 | outcome
STK32B (GeneID 55351) | 1 | 0.746 | -0.421 | 1.07 | inactive
TOX3 (GeneID 27324) | 1 | -0.472 | -1.33 | -0.794 | inactive
MAGEA9 (GeneID 4108) | 1 | -0.823 | -0.232 | -0.838 | inactive
HIGD1B (GeneID 51751) | 1 | 3.55 | 3.15 | -0.142 | active
PDIA3 (GeneID 2923) | 1 | 0.934 | -0.15 | 0.406 | inactive
